This passage reports log2 fold change results from the supplement of paper PMC12819154, “High-throughput peptide-centric local stability assay extends protein–ligand identification to membrane proteins, tissues and bacteria” (Nature Structural & Molecular Biology, 2025).

The chains behind the UniProt entries cited, without tags or fusion partners. Where a name states a change or a piece, a line headed by the entry shows the natural chain unless it says otherwise.
UniProt Q8IVS2: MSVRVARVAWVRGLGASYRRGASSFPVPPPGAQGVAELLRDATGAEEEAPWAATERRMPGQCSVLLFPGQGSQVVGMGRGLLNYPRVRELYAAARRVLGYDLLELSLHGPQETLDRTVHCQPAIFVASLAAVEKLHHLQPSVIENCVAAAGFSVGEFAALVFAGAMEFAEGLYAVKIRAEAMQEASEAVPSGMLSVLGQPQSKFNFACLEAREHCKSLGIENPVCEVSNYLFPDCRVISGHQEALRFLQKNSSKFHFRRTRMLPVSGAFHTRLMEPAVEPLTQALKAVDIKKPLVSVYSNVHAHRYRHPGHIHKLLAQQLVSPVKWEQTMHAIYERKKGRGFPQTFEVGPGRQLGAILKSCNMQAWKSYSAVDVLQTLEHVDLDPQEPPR
UniProt Q8IY22: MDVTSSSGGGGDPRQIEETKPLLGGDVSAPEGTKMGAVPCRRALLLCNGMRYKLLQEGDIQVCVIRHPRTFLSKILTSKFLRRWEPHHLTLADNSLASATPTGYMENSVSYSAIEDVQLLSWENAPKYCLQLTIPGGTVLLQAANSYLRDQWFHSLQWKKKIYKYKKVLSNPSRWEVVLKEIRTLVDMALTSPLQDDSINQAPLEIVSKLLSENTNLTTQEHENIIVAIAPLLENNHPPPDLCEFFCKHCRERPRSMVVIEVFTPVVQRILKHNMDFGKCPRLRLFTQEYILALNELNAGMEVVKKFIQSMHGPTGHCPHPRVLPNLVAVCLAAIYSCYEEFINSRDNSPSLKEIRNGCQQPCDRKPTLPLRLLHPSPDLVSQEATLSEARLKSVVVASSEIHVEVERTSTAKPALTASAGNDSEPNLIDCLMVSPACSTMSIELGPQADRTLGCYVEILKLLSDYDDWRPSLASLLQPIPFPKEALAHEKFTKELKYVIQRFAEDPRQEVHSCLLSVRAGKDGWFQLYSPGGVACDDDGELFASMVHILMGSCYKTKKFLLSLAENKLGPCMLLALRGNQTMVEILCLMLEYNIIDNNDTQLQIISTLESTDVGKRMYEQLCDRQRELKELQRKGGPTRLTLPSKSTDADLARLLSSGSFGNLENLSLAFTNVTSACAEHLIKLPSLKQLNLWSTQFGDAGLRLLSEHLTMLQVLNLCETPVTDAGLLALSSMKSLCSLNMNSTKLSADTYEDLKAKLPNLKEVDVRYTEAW
UniProt Q86WW8: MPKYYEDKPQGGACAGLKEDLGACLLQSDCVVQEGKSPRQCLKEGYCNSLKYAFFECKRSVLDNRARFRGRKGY
UniProt Q8IY17: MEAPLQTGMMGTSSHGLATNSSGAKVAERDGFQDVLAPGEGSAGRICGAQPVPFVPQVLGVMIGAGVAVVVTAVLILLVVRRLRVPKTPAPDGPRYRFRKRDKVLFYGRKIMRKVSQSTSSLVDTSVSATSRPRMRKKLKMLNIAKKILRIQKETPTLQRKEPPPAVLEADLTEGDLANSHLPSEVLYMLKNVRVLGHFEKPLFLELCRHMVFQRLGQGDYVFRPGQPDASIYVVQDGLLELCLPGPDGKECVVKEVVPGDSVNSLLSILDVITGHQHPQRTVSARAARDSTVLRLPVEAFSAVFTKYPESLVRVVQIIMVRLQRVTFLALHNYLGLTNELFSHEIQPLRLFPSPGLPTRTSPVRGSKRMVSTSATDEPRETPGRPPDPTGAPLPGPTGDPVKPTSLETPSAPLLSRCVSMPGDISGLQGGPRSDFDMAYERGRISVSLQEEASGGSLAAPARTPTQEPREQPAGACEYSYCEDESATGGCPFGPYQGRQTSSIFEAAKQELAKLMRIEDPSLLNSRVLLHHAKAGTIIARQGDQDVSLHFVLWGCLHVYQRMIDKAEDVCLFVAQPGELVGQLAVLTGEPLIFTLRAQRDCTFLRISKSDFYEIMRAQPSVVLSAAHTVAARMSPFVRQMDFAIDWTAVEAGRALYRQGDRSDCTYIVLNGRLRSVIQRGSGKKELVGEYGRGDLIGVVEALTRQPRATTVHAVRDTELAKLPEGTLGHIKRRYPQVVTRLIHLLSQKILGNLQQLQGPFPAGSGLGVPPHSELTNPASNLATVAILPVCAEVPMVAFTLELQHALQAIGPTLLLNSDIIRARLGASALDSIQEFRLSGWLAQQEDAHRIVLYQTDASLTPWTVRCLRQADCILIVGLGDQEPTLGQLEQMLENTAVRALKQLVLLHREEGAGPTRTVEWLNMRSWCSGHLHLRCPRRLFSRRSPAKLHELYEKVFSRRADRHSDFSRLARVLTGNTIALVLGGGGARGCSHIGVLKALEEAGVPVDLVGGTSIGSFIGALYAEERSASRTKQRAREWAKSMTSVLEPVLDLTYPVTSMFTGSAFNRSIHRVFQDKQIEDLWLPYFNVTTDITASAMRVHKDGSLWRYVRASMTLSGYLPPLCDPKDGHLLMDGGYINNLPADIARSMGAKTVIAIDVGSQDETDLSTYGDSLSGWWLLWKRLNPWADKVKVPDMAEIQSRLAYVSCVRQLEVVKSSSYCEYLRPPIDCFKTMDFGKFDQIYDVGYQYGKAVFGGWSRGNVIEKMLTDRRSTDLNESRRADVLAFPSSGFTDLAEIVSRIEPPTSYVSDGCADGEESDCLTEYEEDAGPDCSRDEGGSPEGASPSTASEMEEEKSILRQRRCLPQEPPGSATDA
UniProt Q8IZD4: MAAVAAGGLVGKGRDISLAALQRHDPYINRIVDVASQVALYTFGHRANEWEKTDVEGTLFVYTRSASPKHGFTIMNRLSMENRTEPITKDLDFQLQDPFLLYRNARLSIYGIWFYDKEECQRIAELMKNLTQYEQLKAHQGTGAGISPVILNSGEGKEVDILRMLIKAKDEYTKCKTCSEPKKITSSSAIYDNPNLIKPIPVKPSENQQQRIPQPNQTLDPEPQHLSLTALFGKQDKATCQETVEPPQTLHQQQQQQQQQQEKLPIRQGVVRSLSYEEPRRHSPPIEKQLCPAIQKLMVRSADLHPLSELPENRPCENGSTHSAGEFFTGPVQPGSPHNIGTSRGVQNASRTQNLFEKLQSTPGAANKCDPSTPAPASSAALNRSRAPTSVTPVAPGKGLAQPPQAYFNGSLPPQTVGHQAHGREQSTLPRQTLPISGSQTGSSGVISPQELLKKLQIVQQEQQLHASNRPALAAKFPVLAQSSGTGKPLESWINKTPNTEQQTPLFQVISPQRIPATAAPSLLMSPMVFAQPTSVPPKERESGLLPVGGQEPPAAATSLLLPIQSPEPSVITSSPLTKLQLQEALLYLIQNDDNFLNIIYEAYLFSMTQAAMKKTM
UniProt Q8IWA0: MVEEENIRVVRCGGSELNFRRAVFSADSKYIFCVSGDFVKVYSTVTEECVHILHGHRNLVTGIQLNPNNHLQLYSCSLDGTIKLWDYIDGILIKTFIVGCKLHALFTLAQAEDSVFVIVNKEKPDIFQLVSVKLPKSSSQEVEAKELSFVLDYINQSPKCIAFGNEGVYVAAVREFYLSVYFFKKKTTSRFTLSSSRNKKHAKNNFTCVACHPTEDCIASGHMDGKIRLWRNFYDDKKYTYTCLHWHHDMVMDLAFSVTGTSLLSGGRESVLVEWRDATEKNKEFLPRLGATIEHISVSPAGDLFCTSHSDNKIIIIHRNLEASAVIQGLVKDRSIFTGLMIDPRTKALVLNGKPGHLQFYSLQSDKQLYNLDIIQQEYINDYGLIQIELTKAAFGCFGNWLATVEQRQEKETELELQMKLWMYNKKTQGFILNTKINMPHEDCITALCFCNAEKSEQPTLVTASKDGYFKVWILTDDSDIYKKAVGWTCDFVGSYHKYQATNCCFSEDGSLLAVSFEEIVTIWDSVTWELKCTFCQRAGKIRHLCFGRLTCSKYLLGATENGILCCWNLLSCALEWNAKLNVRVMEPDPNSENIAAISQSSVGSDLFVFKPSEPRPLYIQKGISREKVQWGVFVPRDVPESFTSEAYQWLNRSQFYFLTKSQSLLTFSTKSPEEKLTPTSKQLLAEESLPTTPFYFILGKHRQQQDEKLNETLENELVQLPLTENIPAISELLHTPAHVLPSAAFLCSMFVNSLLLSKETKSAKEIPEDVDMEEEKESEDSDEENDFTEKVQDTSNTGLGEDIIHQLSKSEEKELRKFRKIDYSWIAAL
UniProt Q8IWZ6: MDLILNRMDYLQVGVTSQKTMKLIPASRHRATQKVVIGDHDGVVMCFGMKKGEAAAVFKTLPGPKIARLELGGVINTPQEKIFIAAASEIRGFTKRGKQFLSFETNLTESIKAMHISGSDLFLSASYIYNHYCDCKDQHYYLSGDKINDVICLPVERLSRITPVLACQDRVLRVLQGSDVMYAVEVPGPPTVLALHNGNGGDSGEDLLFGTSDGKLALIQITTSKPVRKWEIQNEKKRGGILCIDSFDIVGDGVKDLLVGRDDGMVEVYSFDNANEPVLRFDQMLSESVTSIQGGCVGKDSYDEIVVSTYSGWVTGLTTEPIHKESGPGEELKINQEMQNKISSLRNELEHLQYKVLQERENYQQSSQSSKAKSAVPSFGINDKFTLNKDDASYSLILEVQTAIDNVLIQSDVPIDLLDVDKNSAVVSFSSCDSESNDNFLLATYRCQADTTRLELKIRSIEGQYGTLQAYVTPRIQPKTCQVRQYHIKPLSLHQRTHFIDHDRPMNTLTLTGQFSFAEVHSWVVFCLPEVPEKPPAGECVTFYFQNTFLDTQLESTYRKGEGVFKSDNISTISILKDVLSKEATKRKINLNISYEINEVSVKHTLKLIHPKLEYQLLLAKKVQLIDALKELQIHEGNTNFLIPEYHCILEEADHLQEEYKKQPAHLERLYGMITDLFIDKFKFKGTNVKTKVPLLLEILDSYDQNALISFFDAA
UniProt Q8IXB1: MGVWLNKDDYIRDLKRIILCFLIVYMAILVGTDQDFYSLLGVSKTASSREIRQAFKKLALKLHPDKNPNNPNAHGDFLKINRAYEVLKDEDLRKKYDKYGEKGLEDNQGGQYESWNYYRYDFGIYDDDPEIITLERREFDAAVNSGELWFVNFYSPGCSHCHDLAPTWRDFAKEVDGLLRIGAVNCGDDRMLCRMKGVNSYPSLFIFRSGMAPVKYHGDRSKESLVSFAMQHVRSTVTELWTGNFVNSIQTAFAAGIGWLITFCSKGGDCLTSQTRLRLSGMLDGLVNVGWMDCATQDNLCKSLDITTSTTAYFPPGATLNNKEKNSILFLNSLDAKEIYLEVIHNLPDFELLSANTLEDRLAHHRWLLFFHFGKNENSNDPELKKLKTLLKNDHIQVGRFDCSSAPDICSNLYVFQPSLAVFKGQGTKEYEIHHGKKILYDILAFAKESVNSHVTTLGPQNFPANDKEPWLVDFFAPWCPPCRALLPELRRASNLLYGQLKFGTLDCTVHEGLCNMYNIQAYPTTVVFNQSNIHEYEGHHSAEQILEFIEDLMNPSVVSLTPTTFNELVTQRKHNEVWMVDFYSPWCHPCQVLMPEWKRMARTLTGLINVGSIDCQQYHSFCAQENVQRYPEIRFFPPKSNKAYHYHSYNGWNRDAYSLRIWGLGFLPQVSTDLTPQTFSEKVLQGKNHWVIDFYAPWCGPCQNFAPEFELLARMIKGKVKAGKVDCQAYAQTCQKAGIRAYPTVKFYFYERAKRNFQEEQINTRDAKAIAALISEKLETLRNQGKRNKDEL

The other results are listed elsewhere or left out. Small differences around the control level are noise.

Compound in this assay: CN[C@@H]1C[C@H]2O[C@@](C)([C@@H]1OC)n1c3ccccc3c3c4c(c5c6ccccc6n2c5c31)C(=O)NC4 [staurosporine]
Description: log2 fold change of tryptic peptide abundance, ligand vs vehicle (limited proteolysis) (log2 ratio); higher = more trypsin-susceptible (destabilized). Conditions: ligand concentration: 20 uM; sample: K562 cleared lysate; digestion: 4 min, 22 C (HT-PELSA RT4min, Orbitrap Astral).
As for “UniProt Q8IVS2 (peptide sequence: KPLVSVYSNVHAHRYR, peptide start residue: 292)”, the log2 fold change was -0.172. With “CMIP (peptide sequence: LSADTYEDLK, peptide start residue: 747) (UniProt Q8IY22)” the figure was -0.173; with “COA5 (peptide sequence: QCLKEGYCNSLK, peptide start residue: 40) (UniProt Q86WW8)”, -0.0792. With “PNPLA6 (peptide sequence: LAYVSCVR, peptide start residue: 1203) (UniProt Q8IY17)” the figure was 0.33; with “DCP1B (peptide sequence: QLCPAIQK, peptide start residue: 289) (UniProt Q8IZD4)”, 0.158; with “WDR75 (peptide sequence: LGATIEHISVSPAGDLFCTSHSDNK, peptide start residue: 289) (UniProt Q8IWA0)”, 0.236. In the case of “DHX37 (peptide sequence: TKAPPLSKK, peptide start residue: 59) (UniProt Q8IY37)” it was 0.314; in that of “UniProt Q8N0W3 (peptide sequence: EQIPAGTLLLAVEDPEKR, peptide start residue: 36)”, -0.402. On to “BBS7 (peptide sequence: SDNISTISILKDVLSK, peptide start residue: 567) (UniProt Q8IWZ6)”, for which the log2 fold change was 0.418. On to “DNAJC10 (peptide sequence: AYEVLKDEDLRK, peptide start residue: 83) (UniProt Q8IXB1)”, for which the log2 fold change was -0.474.
